{"sequences": {"note": "By UniProt entry, the sequences of proteins in these tests, tags left out. Residues count along the entry.", "UniProt P30082, 27-485": "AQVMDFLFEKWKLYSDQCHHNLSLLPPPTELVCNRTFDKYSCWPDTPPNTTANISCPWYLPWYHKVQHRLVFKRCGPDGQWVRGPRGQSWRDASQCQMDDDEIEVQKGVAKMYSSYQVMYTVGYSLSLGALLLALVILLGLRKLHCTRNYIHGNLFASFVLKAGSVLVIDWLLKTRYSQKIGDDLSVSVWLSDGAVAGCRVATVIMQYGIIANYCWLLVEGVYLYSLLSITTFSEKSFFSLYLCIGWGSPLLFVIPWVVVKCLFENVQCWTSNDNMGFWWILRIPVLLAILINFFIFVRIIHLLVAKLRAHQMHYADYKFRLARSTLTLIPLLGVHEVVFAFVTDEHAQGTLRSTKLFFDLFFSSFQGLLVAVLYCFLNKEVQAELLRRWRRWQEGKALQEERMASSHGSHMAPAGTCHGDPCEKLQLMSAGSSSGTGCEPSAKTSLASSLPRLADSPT"}, "source": "patent US5834428A", "about": "“Glucagon-like peptide-2 and its therapeutic use” (1149336 Ontario Inc., priority 1996, dated 1998)", "key": {"small bowel [1]": {"system": "small bowel", "assay": "Intestinotrophic effect of GLP-2's and GLP-2 analogs in mice (Example 3)", "format": "in vivo", "details": "2.5 μg in PBS s.c. every 12 hours; for small bowel growth and crypt plus villus height: 14-day experiment, vs saline-treated controls, FIG. 8 panels A-F"}, "small bowel [2]": {"system": "small bowel", "assay": "Small bowel weight in mice after 10 days of s.c. peptide in 16% gelatin (Example 1)", "format": "in vivo", "method": "In a first experiment designed to investigate the effect of glicentin on small bowel growth, two groups of six mice (8 week, CD1 females from Charles River Laboratories) were treated as follows. Each mouse received 41.5 μg injections every 12 hours for 10 days. The injections were delivered subcutaneously in a final volume of 16% gelatin, with 0.5 cc injected subcutaneously every 12 hours. […] Control mice received 0.5 cc of 16% gelatin solution, but no peptide, every 12 hours. Mice were fed standard rat chow with free access to food and water, until 12 hours prior to sacrifice, at which time food was withheld, and water only was given. The weight of the small bowel was ascertained by excising the entire small bowel, and removing the stomach (proximal end) and appendix/cecum/large bowel (distal end). The remaining small bowel was cleaned with saline to remove feces, and weighed. Results were as follows:\nGLP-2 formulations for injection were prepared as follows: Gelatin was dissolved in warm water to a weight ratio of 16%, and the 50 mL solution was autoclaved and cooled to room temperature. A peptide solution was then separately prepared by mixing 5 mg of GLP-2 with water at a volume slightly less than 10 mL, and then adding 1N acetic acid in a volume (10-20 μL) sufficient to dissolve the peptide completely. The pH was then readjusted to about 7.0 by addition of an equal volume of 1N NaOH (10-20 μL), and the solution volume was then adjusted to 10 mL by addition of distilled water. To prepare the formulation for injection, the 10 mL peptide solution and the 50 mL solution of 16% gelatin were combined with mixing, and aliquots for injection were drawn into a 0.5 mL insulin syringe.\nMice were injected with 0.5 ml of the 16% gelatin solution, without or with peptide (62.5 μg/dose). Four groups of four mice (8 week, CD1 females from Charles River Laboratories) were injected twice daily for 10 days."}, "pancreatic islets": {"system": "pancreatic islets", "assay": "Morphometric analysis of pancreatic islet area in treated mice", "format": "in vivo"}, "small bowel [3]": {"system": "small bowel", "assay": "Small bowel weight in CD1 mice (Example 2)", "format": "in vivo"}, "small bowel [4]": {"system": "small bowel", "assay": "Crypt plus villus height by intestinal micrometry (Example 2)", "format": "in vivo, mice"}, "[5]": {"system": "proliferating cell nuclear antigen (PCNA)", "assay": "Proliferation rate by PCNA detection in small bowel sections", "format": "in vivo, mice"}, "apoptotic cells": {"system": "apoptotic cells", "assay": "Apoptosis analysis by TUNEL method in small bowel sections", "format": "in vivo", "details": "relative to control mice"}, "[6]": {"molecular_target": "T1, rat liver and brain tissues (Rattus norvegicus, UniProt P30082)", "T1 construct": "host or cells: rat liver and brain tissues", "details": "cited from earlier work"}, "[7]": {"system": "adenylate cyclase in liver plasma membranes", "details": "cited from earlier work"}, "[8]": {"details": "group of four mice, 62.5 μg/dose twice daily for 10 days in 16% gelatin"}}, "note": "Several values for one entry are separate records, joined by “and”; a condition that tells them apart may be missing. Equal entries are not always repeated. At least one peptide structure holds a part that was inferred or is arguable (an end, a ring closure or a residue). Ends that are not written are not given here."}
{"substance": "RHADGSFSDEMNTILDNLATRDFINWLIQTKITD [[Arg^+1]-GLP-2]", "values": [{"measurement": "small bowel growth and crypt plus villus height", "setting": "small bowel [1]", "result": "still exhibited small bowel growth factor properties in vivo"}]}
{"substance": "Ac-HADGSFSDEMNTILDNLATRDFINWLIQTKITD [[N-acetyl]-GLP-2]", "values": [{"measurement": "small bowel growth and crypt plus villus height", "setting": "small bowel [1]", "result": "still exhibited small bowel growth factor properties in vivo"}]}
{"substance": "HADGSFSDEMNTILDNLATRDFINWLIQTKITD-NH2 [[C-amido]-GLP-2]", "values": [{"measurement": "GLP-2 biological activity in vivo", "setting": "small bowel [1]; FIGS. 8C-D", "result": "did not exhibit significant GLP-2 biological activity in vivo"}]}
{"substance": "HADGSFSDEMNTILDNLATRDFINWLIQTKITD [rat GLP-2]", "values": [{"measurement": "increase in the mass of small bowel", "setting": "small bowel [2]; about 2.5 mg/kg (640 nmole/kg) twice daily for 10 days, relative to control and to GLP-1 group", "result": "statistically significant (p<0.05) increase"}, {"measurement": "Small bowel weight % body wt", "setting": "small bowel [2]; [8]", "result": "8.12 ± .40 % body wt"}, {"measurement": "Small bowel weight Average", "setting": "small bowel [2]; [8]", "result": "2.08 ± .14 gm"}, {"measurement": "Small bowel weight Day 10", "setting": "small bowel [2]; individual mice, 62.5 μg/dose twice daily for 10 days in 16% gelatin", "result": "1.8 gm and 2.3 gm and 2.4 gm"}, {"measurement": "number of islets", "setting": "pancreatic islets; 62.5 μg/dose twice daily for 10 days", "result": "increase"}, {"measurement": "islet area as % of total pancreatic area", "setting": "pancreatic islets; 62.5 μg/dose twice daily for 10 days, control 0.31%", "result": 0.76, "unit": "%"}, {"measurement": "increase in islet area", "setting": "pancreatic islets; relative to control group", "result": "more than double"}, {"measurement": "increase in bowel weight", "setting": "small bowel [3]; 2.5 μg twice a day in PBS, regardless of route (SC, IM or IP), vs PBS control, FIG. 3", "result": "significant response"}, {"measurement": "small bowel weight increase on long term administration", "setting": "small bowel [3]; 5 μg once a day s.c. in 10% gelatin for 4, 8 or 12 weeks, FIG. 5", "result": "induced and sustained over the examined term of administration"}, {"measurement": "small bowel weight and crypt/villus height", "setting": "small bowel [3]; PBS formulation, s.c., 2.5 μg twice a day, FIG. 2", "result": "statistically significant increase"}, {"measurement": "small bowel growth in aged mice", "setting": "small bowel [3]; female C57BLK mice aged 6 months to 2 years", "result": "effective in promoting small bowel growth"}, {"measurement": "small bowel weight and crypt/villus height", "setting": "small bowel [3]; gelatin-based formulation (G), s.c., 2.5 μg twice a day, FIG. 2", "result": "statistically significant increase"}, {"measurement": "time post-treatment at which increased small bowel weight has regressed", "setting": "small bowel [3]; other studies", "result": "about 10 days"}, {"measurement": "response with gelatin-based formulation compared with PBS formulation", "setting": "small bowel [3]; s.c., 2.5 μg twice a day, FIG. 2", "result": "slightly greater response"}, {"measurement": "percent change of small bowel weight", "setting": "small bowel [3]; s.c., all frequencies (q12h 2.5 μg, qd 5 μg, qod 10 μg), vs PBS alone, FIG. 4", "result": "increase of significance"}, {"measurement": "effects on small bowel by recipient gender", "setting": "small bowel [3]; sex-matched CD-1 mice 4 to 16 weeks of age, 2.5 μg twice daily, FIG. 7", "result": "elicited independently of the recipient's gender"}, {"measurement": "dose at which desired effect on crypt/villus height is realized", "setting": "small bowel [4]; 12% gelatin formulation, s.c., FIG. 1", "result": "≥ 0.25", "unit": "µg"}, {"measurement": "regression of villus hyperplasia post-treatment", "setting": "small bowel [4]; particularly in older (24 month old) mice", "result": "did not completely regress"}, {"measurement": "proliferation rates in the proximal jejunum relative to control mice", "setting": "[5]", "result": 124, "unit": "%"}, {"measurement": "proliferation rates in the proximal jejunum", "setting": "[5]; control 46.0±1.2%", "result": "57±5.5", "unit": "%"}, {"measurement": "apoptotic rates in the proximal jejunum", "setting": "apoptotic cells", "result": "decreased"}, {"measurement": "competition with glucagon for binding", "setting": "[6]", "result": "neither competes with glucagon for binding"}, {"measurement": "stimulation of adenylate cyclase production", "setting": "[7]", "result": "nor stimulates adenylate cyclase production"}]}
